Earlier results as cited in US20230255882A1, “LONG-LASTING RESORBABLE SUBCUTANEOUS IMPLANT WITH SUSTAINED RELEASE OF PRE-CONCENTRATED PHARMACOLOGICALLY ACTIVE SUBSTANCE IN POLYMER FOR THE TREATMENT OF PARKINSONS DISEASE” (priority 2020, published 2023).
For at least one compound, name, drawing or mass did not settle the structure.

Sequences of proteins named here, by UniProt entry; tags and fusion partners are left off. A change or cut given only in a name is not applied to a line headed by its entry.
UniProt P07101: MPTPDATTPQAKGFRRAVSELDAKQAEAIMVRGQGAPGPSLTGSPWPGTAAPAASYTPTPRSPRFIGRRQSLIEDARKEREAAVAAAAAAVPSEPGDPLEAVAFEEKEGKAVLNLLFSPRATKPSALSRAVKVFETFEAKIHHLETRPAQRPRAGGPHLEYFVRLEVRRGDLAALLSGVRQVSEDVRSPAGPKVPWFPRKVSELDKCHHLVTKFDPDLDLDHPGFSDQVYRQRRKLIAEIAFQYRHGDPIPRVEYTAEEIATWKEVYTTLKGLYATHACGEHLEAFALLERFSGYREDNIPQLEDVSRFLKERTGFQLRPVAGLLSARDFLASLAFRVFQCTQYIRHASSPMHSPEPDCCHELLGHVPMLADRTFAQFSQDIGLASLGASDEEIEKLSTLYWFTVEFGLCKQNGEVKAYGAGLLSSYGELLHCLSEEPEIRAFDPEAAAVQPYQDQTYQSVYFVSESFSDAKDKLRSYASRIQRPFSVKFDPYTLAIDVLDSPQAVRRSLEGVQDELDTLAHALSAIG

Assays:
[1] = molecular target: enzyme tyrosine hydroxylase (Homo sapiens, UniProt P07101); conditions: in vitro
Parkinson's disease [2] = tested on: Parkinson's disease
Parkinson's disease [3] = tested on: Parkinson's disease; remark: listed apart in the source

NC(=O)C1=CN([C@@H]2O[C@H](COP(=O)(O)OP(=O)(O)OC[C@H]3O[C@@H](n4cnc5c(N)ncnc54)[C@H](O)[C@@H]3O)[C@@H](O)[C@H]2O)C=CC1 [NADH, nicotinamide adenine dinucleotide]
increase of tyrosine hydroxylase activity [1]: 75% | production of dopamine in cells [1]: increased the production of dopamine in cells | improvement in symptoms reached by some patients (Parkinson's disease [2]; 12.5 mg i.v. or 5 mg oral every other day, 14 days): 50% | patients showing at least 10% improvement in symptoms (Parkinson's disease [2]; 12.5 mg i.v. or 5 mg oral every other day, 14 days, in addition to usual medications): about 80% | clinical condition after end of treatment (Parkinson's disease [2]; two weeks after the end of treatment with NADH): worsening in their clinical conditions | time of treatment after which all patients improved the clinical symptoms (Parkinson's disease [3]; 25 mg i.v. every day or on alternate days): 4 days | patients showing improvement in symptoms with NADH alone (Parkinson's disease [3]; 25 mg i.v., 10 to 14 days): 11.8% | patients showing moderate response, reaching up to 30% (Parkinson's disease [3]; 25 mg i.v., 10 to 14 days, 13 of 34 patients): 38.3% | patients showing more than 30% improvement (Parkinson's disease [3]; 25 mg i.v., 10 to 14 days, 21 of 34 patients): 61.7% | decrease of the dosage of the other drugs used (Parkinson's disease [3]; the other patients, on NADH 25 mg i.v.): up to 30%
